# From PubChem BioAssay AID2685 (National Center for Advancing Translational Sciences (NCATS), 2010)
# The list shows a part of the results. Shown are side measurements of this screen, not its main read-out; they come without a call. Compounds called inactive in the main read-out are mostly missing here. Words in brackets tell the shape of the fitted curve; partial curves, single points and poor fits give uncertain potencies.
# Test: qHTS Assay for Lipid Storage Modulators in Drosophila S3 Cells;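 on cell number change: cells counted by Cell Tracker Red CMTPX staining in the red channel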
# Settings: BODIPY lipid droplet fluorescence, 18-24 h; for cell number change: measured here: cell count max response, cells fed with added oleic acid
# Procedure, shortened: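 Drosophila S3 cells got compounds at several concentrations plus oleic acid (400 uM solution). Laser-scanning cytometry with 488 nm excitation read lipid droplets at 500-530 nm and cells at 575-640 nm. Percent activity was relative to 20 uM Triacsin C.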
# [1] = measured here: cell number channel AC50, cells fed with added oleic acid
# [2] = measured here: lipid fluorescence (Fed channel) AC50, cells fed with added oleic acid
SMILES,cell number change [%],AC50 [1],AC50 [2]
CCOC(=O)/C(C#N)=C/c1cc(C)n(-c2ccc(Br)cc2)c1C,-36.2,"32.6 µM [falling, single point]","1.3 µM [falling, partial curve]"
Cc1ccc(CNC(=O)CN2C(=O)COc3ccc(C)cc32)cc1,-7.43,,
Cc1ccc(C)c(NC(=O)c2cc(-c3cc(C)cc(C)c3O)n[nH]2)c1,-18.6,,"29.1 µM [falling, single point]"
Cc1c(C)c2ccc(OCC(=O)Nc3ccccc3C(N)=O)cc2oc1=O,21.3,"0.0326 µM [rising, full curve, poor fit]",
O=S(=O)(c1ccc2ccccc2c1)N1CCN(C2CCN(Cc3ccccc3)CC2)CC1,,,"4.11 µM [falling, partial curve]"
CCCCNCC(O)(c1ccc(Cl)cc1)c1ccc(Cl)cc1,-36.2,"20.6 µM [falling, single point]",
CCCN(CCC)c1nc2ccccc2n2c(C)nnc12,,"2.31 µM [rising, partial curve]","2.31 µM [rising, partial curve]"
CCN(CC)S(=O)(=O)c1ccc(Cl)c(C(=O)OC2CC(C)OC2=O)c1 (stereo unspecified),22.2,,"5.8 µM [rising, full curve, poor fit]"
COc1ccc(C)cc1NC(=O)C(NC(=O)c1cc(OC)c(OC)c(OC)c1)C(C)C (stereo unspecified),49.1,,
Cn1c(=O)[nH]c(Nc2ccccc2)c([N+](=O)[O-])c1=O,11.1,,"0.92 µM [falling, full curve, poor fit]"
COc1cc(C(=S)N2CCOCC2)ccc1OC(=O)c1cccc(C)c1,-44.9,"10.3 µM [falling, partial curve]","5.8 µM [falling, full curve]"
O=C(Nc1ccncc1)C1CC1c1ccccc1 (stereo unspecified),-10.8,,"4.11 µM [rising, single point]"
Cn1c(CCN2CCOCC2)nc2cc(NS(=O)(=O)c3ccccc3)ccc21,-21.9,,
CCc1ccc(NC(=O)C(C)OC(=O)C2CCN(c3ccc(C(F)(F)F)cn3)CC2)cc1 (stereo unspecified),-23.7,,
COc1ccc(-n2c(C)nc3cc(C(=O)NCc4ccc5c(c4)OCO5)ccc32)cc1,7.38,,
CCCc1cc(C(=O)Nc2cccc([N+](=O)[O-])c2)cs1,,,"17.8 µM [falling, single point]"
COc1cc2c(cc1OC)C1OC(c3ccsc3)(C2)Oc2cc(C)oc(=O)c21 (stereo unspecified),-27.1,,"0.00473 µM [falling, full curve, poor fit]"
Cc1ccc2c(CN(C)Cc3ccc(Cl)cc3Cl)cc(=O)oc2c1,5.13,,
COc1ccc2nc(COC(=O)c3cccc([N+](=O)[O-])c3)c(C(C)=O)[n+]([O-])c2c1,23.7,,"0.291 µM [rising, full curve]"
CCCc1cc(C(=O)N/N=C/c2ccc(C)o2)c2ccccc2n1,-32.3,"0.231 µM [falling, full curve, poor fit]","1.64 µM [falling, full curve, poor fit]"
COc1ccc(-n2c(Cc3cc(=O)[nH]c(=O)[nH]3)nnc2SCC(=O)Nc2ccccc2)cc1,2.41,,

SMILES,cell number change [%],AC50 [1],AC50 [2]
COC(=O)c1sc(S(=O)(=O)N2CCN(c3ccccc3)CC2)c(C(=O)OC)c1C,,,"0.58 µM [falling, single point]"
CCCCCCSc1nsc(N)n1,-29.2,,"6.51 µM [rising, single point]"
COc1ccc(S(=O)(=O)NC2CC3CCC2C3)cc1 (stereo unspecified),23.7,,"29.1 µM [rising, single point]"
N#C/C(=C\c1ccccc1)C(=O)NC(=O)Oc1ccccc1,,,"2.59 µM [falling, full curve]"
O=C(COC(=O)c1ccccn1)c1cccc(Br)c1,22.5,,"0.112 µM [rising, full curve, poor fit]"
Cc1cc(=O)oc2c(CN3CC(C)OC(C)C3)c(O)c(Cl)cc12 (stereo unspecified),59.9,"1.3 µM [rising, partial curve, poor fit]",
CN(C)CCCNC(=O)N1c2ccccc2Sc2ccccc21,2.38,,
Cc1ccc(Cl)cc1NC(=O)CSC(N)=O,-35.3,"32.6 µM [falling, single point]","29.1 µM [falling, single point]"
CC(CC(=O)NCCc1ccc(S(N)(=O)=O)cc1)c1ccccc1 (stereo unspecified),5.22,,
COc1ccc(C(=O)OCCCc2cc3ccccc3c(=O)o2)cc1,-29.8,,"0.184 µM [falling, full curve, poor fit]"
CC1CC(C)CN(C(=O)COC(=O)c2ccc3c(c2)OCO3)C1 (stereo unspecified),16.4,,"2.31 µM [rising, full curve]"
CN(C)S(=O)(=O)c1cccc(-n2sc3ccccc3c2=O)c1,-75.4,"13 µM [falling, partial curve, poor fit]","25.9 µM [falling, partial curve, poor fit]"
CC1(C)Cc2c(cnn2-c2ccc(F)cc2)C(NC(=O)CN2CCCC2=O)C1 (stereo unspecified),5.9,,"29.1 µM [falling, single point]"
CC(C)COc1ccc(C(=O)CCN2CCCCC2)cc1,-36.1,"20.6 µM [falling, partial curve]","0.731 µM [falling, full curve]"
COc1cc(NC(=O)c2ccc([N+](=O)[O-])o2)ccc1NC(=O)c1cccs1,3.56,"0.00517 µM [falling, full curve, poor fit]","18.4 µM [falling, partial curve]"
O=C(Nc1nccs1)c1ccc(Cl)c([N+](=O)[O-])c1,-35.4,,"0.58 µM [falling, single point]"
Cc1cc(Nc2cccc(F)c2)nc(N2CCOCC2)n1,,"0.13 µM [rising, full curve, poor fit]",
COC(=O)c1ccccc1NC(=O)C/C(C)=N/NC(=O)Cc1ccc(Cl)cc1,11.5,,"6.51 µM [falling, single point]"
Cc1cc(C)cc(NC2=CC(=O)CC(c3ccco3)C2)c1 (stereo unspecified),60,"16.4 µM [rising, partial curve]",
CCOc1ccc(-c2nnc(SCc3nnc(-c4ccccc4)o3)n2-c2ccccc2F)cc1,31,"29.1 µM [rising, single point]","13 µM [rising, partial curve, poor fit]"
COc1ccccc1NS(=O)(=O)c1cc2c3c(c1)CC(=O)N3CCC2,29.8,,"29.1 µM [falling, single point]"

SMILES,cell number change [%],AC50 [1],AC50 [2]
CCCCNC(=O)CSc1nccn1Cc1ccccc1,-26.3,,"16.4 µM [falling, single point]"
Cc1ccc(/C=C2/Sc3ccc(C(=O)N4CCN(c5ccccn5)CC4)cc3NC2=O)cc1,9.48,,"18.4 µM [falling, single point]"
CCCn1c(N)c(N(CCOC)C(=O)c2ccc(N3CCCC3=O)cc2)c(=O)[nH]c1=O,-17.7,,
O=C(N1CCNCC1)N1CCOCC1,-72.8,"16.4 µM [falling, partial curve]","6.51 µM [falling, single point]"
COC(=O)c1ccc2c(c1)NC(=O)CS2,24.1,,
COc1ccc(CNc2ccc3cn[nH]c3c2)c(OC)c1OC,0.979,,
CCOc1ccc(NC(=O)c2nccnc2CO)cc1,-5.16,,"6.51 µM [rising, single point]"
Cc1ccc(-n2ncc3c2CCCC3NC(=O)c2cnccn2)cc1C (stereo unspecified),-5.38,"0.291 µM [falling, partial curve, poor fit]","0.231 µM [falling, full curve]"
COc1cccc(NS(=O)(=O)c2ccc3c(c2)CC(=O)N3)c1,-11.8,,"6.51 µM [falling, single point]"
COC(=O)COc1ccc(C2Nc3c(Cl)ccc(C(=O)O)c3C3C=CCC32)cc1 (stereo unspecified),,"6.51 µM [rising, partial curve, poor fit]","4.61 µM [rising, full curve, poor fit]"
CCc1cc2c(SCC(=O)c3ccc(Cl)s3)ncnc2s1,30.2,"6.51 µM [rising, single point]","7.31 µM [rising, single point]"
CC1CC(C)CN(C(=O)C2CCCN(S(=O)(=O)c3cccc4nonc34)C2)C1 (stereo unspecified),-10.2,,"2.59 µM [rising, partial curve]"
CS(=O)(=O)c1cccc(C(=O)Nc2cccc(-c3nc4ccccc4[nH]3)c2)c1,,,"8.2 µM [falling, partial curve]"
O=C(CSCc1ccccc1)N1CCN(c2ccc(F)cc2)CC1,-31.5,"5.8 µM [falling, full curve, poor fit]","13 µM [falling, partial curve]"
CCOC(=O)C1=C(COC(=O)c2nc(Cl)ccc2Cl)NC(=O)NC1C (stereo unspecified),7,,
CNC(=O)c1nc(C)c(C2(C)CC(c3ccccc3)=NO2)s1 (stereo unspecified),6.16,,"25.9 µM [rising, partial curve, poor fit]"
O=S(=O)(Nc1cccc2c1CCCC2)c1cccc(C(F)(F)F)c1,-30.3,"29.1 µM [falling, single point]","29.1 µM [falling, single point]"
CC(C)(C)N=C1NN=C(c2ccc(S(=O)(=O)N3CCCCC3)cc2)CS1,-67,"29.1 µM [falling, single point]",
CC(C)C(NC(=O)CCN1C(=O)c2ccccc2C1=O)c1ccccc1 (stereo unspecified),38.6,"4.61 µM [rising, partial curve, poor fit]",

# Some of the entries above, reformatted.
SMILES | cell number change [%] | AC50 [1] | AC50 [2]
Cc1ccc(C)c(NC(=O)c2cc(-c3cc(C)cc(C)c3O)n[nH]2)c1 | -18.6 |  | 29.1 µM [falling, single point]
O=S(=O)(c1ccc2ccccc2c1)N1CCN(C2CCN(Cc3ccccc3)CC2)CC1 |  |  | 4.11 µM [falling, partial curve]
Cn1c(=O)[nH]c(Nc2ccccc2)c([N+](=O)[O-])c1=O | 11.1 |  | 0.92 µM [falling, full curve, poor fit]
COc1cc2c(cc1OC)C1OC(c3ccsc3)(C2)Oc2cc(C)oc(=O)c21 (stereo unspecified) | -27.1 |  | 0.00473 µM [falling, full curve, poor fit]
CCOc1ccc(NC(=O)c2nccnc2CO)cc1 | -5.16 |  | 6.51 µM [rising, single point]
